Literature values in EP2742940A1, “Salts of aza-bicyclo-di-aryl ethers for adminstration once daily, twice daily or thrice daily” (IP Gesellschaft für Management mbH, priority 2012, dated 2014).
At least one compound was matched to its structure with a doubt left.

Conditions: rats, acute oral dosing of 10 mg/kg

SMILES | time at which Cmax was reached [h]
Cc1ccc(-c2ccc(O[C@H]3CN4CCC3CC4)cn2)cc1.O=C(O)/C=C/C(=O)O [Compound B, fumarate salt of (R)-3-(6-(4-methylphenyl)-pyridin-3-yloxy)-1-aza-bicyclo[2.2.2]octane] | 0.25 to 0.5

Conditions: not given

SMILES | Loss on drying (LOD)
Cc1ccc(-c2ccc(O[C@H]3CN4CCC3CC4)cn2)cc1.O=C(O)/C=C/C(=O)O [Compound B, fumarate salt of (R)-3-(6-(4-methylphenyl)-pyridin-3-yloxy)-1-aza-bicyclo[2.2.2]octane] | < 0.03%
Cc1ccc(-c2ccc(O[C@H]3CN4CCC3CC4)cn2)cc1.Cl [Hydrochloride, Form A, chloride salt (hydrochloride) of (R)-3-(6-(4-methylphenyl)-pyridin-3-yloxy)-1-aza-bicyclo[2.2.2]octane] | about 5%
Cc1ccc(-c2ccc(O[C@H]3CN4CCC3CC4)cn2)cc1.O=C(O)/C=C\C(=O)O [Maleate, maleate salt of (R)-3-(6-(4-methylphenyl)-pyridin-3-yloxy)-1-aza-bicyclo[2.2.2]octane] | < 0.03%
Cc1ccc(-c2ccc(O[C@H]3CN4CCC3CC4)cn2)cc1.O=C(O)CC(=O)O [Malonate, malonate salt of (R)-3-(6-(4-methylphenyl)-pyridin-3-yloxy)-1-aza-bicyclo[2.2.2]octane] | 0%
Cc1ccc(-c2ccc(O[C@H]3CN4CCC3CC4)cn2)cc1.O=P(O)(O)O [Phosphate, Form A, phosphate salt of (R)-3-(6-(4-methylphenyl)-pyridin-3-yloxy)-1-aza-bicyclo[2.2.2]octane] | about 0.5%
